PubChem BioAssay AID1053208, Peter MacCallum Cancer Centre | 2014

Purpose: 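Genes whose silencing cuts survival of bone tumour cells only with doxorubicin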 (primary screen)
System: mouse osteosarcoma cells, early-passage culture from an engineered mouse model of fibroblastic bone tumour
Reagents: siRNA pool against mouse genes, 40 nM
Time to read-out: about 120 h (48 h before drug, then 72 h with drug)
Conditions: doxorubicin 100 nM for 72 h, roughly 30-40% inhibitory dose
Measurement: 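Viability read as ATP luminescence after 72 h of 100 nM doxorubicin or none, duplicate wells averaged, scaled to non-targeting siRNA, then expressed as robust z-scores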
Direction: viability z-score with doxorubicin and doxorubicin viability vs non-targeting: higher = more viable cells under doxorubicin; viability z-score without drug: higher = more viable cells with knock-down alone; z-score of drug to no-drug ratio: higher = less drug sensitisation by knock-down
Rule for the call: 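Called active if knock-down leaves viability unchanged without drug (z within -2 to 2) but lowers it with doxorubicin (z at or under -2)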
The whole screen tested about 17,000 reagents; shown is a part drawn at random. Over the whole deposit, 788 (4.7%) were called active. 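Calls rest on z-score classes alone; an extra cut-off of viability at most 70% of control was not applied to them.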 The numbers tell different reagents against one gene apart.

| Target gene | reagent no. | combined z-score class | viability z-score with doxorubicin | viability z-score without drug | z-score of drug to no-drug ratio | doxorubicin viability vs non-targeting | call |
| --- | --- | --- | --- | --- | --- | --- | --- |
| Ghrh | 1 | no change with or without drug | -0.45 | -0.67 | 0.11 | 0.9 | inactive |
| Fignl1 | 1 | no change with or without drug | 0.67 | 0.67 | 0.34 | 1 | inactive |
| Prr15l | 1 | no change with or without drug | -1.46 | 0.34 | -1.57 | 0.81 | inactive |
| Ninl | 1 | high cell count without drug only | -0.45 | 2.19 | -1.69 | 0.9 | inactive |
| Csnk1d | 1 | no change with or without drug | -0.56 | 1.18 | -1.24 | 0.89 | inactive |
| Hif1an | 1 | no change with or without drug | -0.45 | 0 | -0.34 | 0.9 | inactive |
| Upp1 | 1 | no change with or without drug | -0.45 | -1.01 | 0.34 | 0.9 | inactive |
| Zfp623 | 1 | high cell count without drug only | 0.56 | 2.19 | -0.67 | 0.99 | inactive |
| Adap2 | 1 | low cell count with doxorubicin only | -2.02 | 0.51 | -2.25 | 0.76 | active |
| Hsd17b1 | 1 | no change with or without drug | 0.9 | 0.17 | 0.9 | 1.02 | inactive |
| Flywch2 | 1 | low cell count without drug only | -0.67 | -3.71 | 2.59 | 0.88 | inactive |
| Hoxa5 | 1 | no change with or without drug | 1.24 | 0.51 | 1.01 | 1.05 | inactive |
| S100a7a | 1 | no change with or without drug | -0.45 | 0.17 | -0.45 | 0.9 | inactive |
| Rab9 | 1 | no change with or without drug | 1.57 | 0.84 | 1.12 | 1.08 | inactive |
| Otoa | 1 | high cell count without drug only | 0.22 | 2.19 | -1.01 | 0.96 | inactive |
| Tas2r107 | 1 | high cell count without drug only | -1.8 | 2.19 | -2.92 | 0.78 | inactive |
| Or14c41 | 1 | no change with or without drug | -1.35 | -0.34 | -1.12 | 0.82 | inactive |
| Hus1b | 1 | no change with or without drug | -0.56 | -1.18 | 0.34 | 0.89 | inactive |
| Rbm41 | 1 | high cell count without drug only | 1.8 | 2.02 | 0.56 | 1.1 | inactive |
| Vmn1r233 | 1 | high cell count without drug only | -0.45 | 3.2 | -2.14 | 0.9 | inactive |
| Slurp1 | 1 | no change with or without drug | -1.69 | 0.84 | -2.14 | 0.79 | inactive |
| Usp20 | 1 | low cell count with doxorubicin only | -2.14 | 0.34 | -2.36 | 0.75 | active |
| Cstl1 | 1 | no change with or without drug | 0 | 0.51 | -0.22 | 0.94 | inactive |
| Htr1b | 1 | no change with or without drug | 1.8 | -1.18 | 3.04 | 1.1 | inactive |
| Or4k44 | 1 | no change with or without drug | -1.8 | -0.51 | -1.46 | 0.78 | inactive |
| Gstm4 | 1 | no change with or without drug | -0.9 | -1.18 | 0 | 0.86 | inactive |
| Slc17a9 | 1 | no change with or without drug | 1.12 | -0.17 | 1.46 | 1.04 | inactive |
| Pitpnm1 | 1 | no change with or without drug | 1.69 | -0.67 | 2.47 | 1.09 | inactive |
| Scube1 | 1 | no change with or without drug | 1.12 | 0.51 | 0.9 | 1.04 | inactive |
| Gbp9 | 1 | no change with or without drug | -1.35 | -0.51 | -1.01 | 0.82 | inactive |
| Mon1b | 1 | no change with or without drug | -0.67 | 0.17 | -0.67 | 0.88 | inactive |
| Ubqln2 | 1 | no change with or without drug | 1.46 | -0.17 | 1.8 | 1.07 | inactive |
| Srsf6 | 1 | no change with or without drug | -0.56 | -0.51 | -0.11 | 0.89 | inactive |
| Tsc1 | 1 | no change with or without drug | 0 | 0.84 | -0.45 | 0.94 | inactive |
| Kcnh2 | 1 | no change with or without drug | 0.56 | 0.51 | 0.34 | 0.99 | inactive |
| Prpf38a | 1 | no change with or without drug | -1.12 | -1.52 | 0 | 0.84 | inactive |
| Scgb2b26 | 1 | no change with or without drug | 0.56 | 0.84 | 0.11 | 0.99 | inactive |
| Scgb2b26 | 2 | no change with or without drug | 0 | 0.17 | 0 | 0.94 | inactive |
| Zfp979 | 1 | no change with or without drug | -0.56 | 0.51 | -0.79 | 0.89 | inactive |
| Atp1b2 | 1 | no change with or without drug | 0.67 | 0.17 | 0.67 | 1 | inactive |
| Pemt | 1 | low cell count with doxorubicin only | -2.59 | -1.18 | -1.91 | 0.71 | active |
| Or8b1d | 1 | no change with or without drug | 1.8 | -0.84 | 2.7 | 1.1 | inactive |
| Gng2 | 1 | no change with or without drug | -0.22 | -0.17 | 0 | 0.92 | inactive |
| Brms1 | 1 | high cell count with doxorubicin only | 2.02 | 0.17 | 2.14 | 1.12 | inactive |
| Acbd4 | 1 | no change with or without drug | -0.45 | -0.51 | 0 | 0.9 | inactive |
| Ate1 | 1 | no change with or without drug | 0.45 | -0.17 | 0.67 | 0.98 | inactive |
| Magea9-ps | 1 | low cell count with and without drug | -2.7 | -3.04 | -0.79 | 0.7 | inactive |
| Sult5a1 | 1 | no change with or without drug | -0.67 | 0.17 | -0.67 | 0.88 | inactive |
| Ube2q2 | 1 | no change with or without drug | -1.57 | -0.51 | -1.24 | 0.8 | inactive |
| Chkb | 1 | no change with or without drug | 0 | -0.84 | 0.67 | 0.94 | inactive |
| Slc35a4 | 1 | no change with or without drug | -0.22 | 0.34 | -0.34 | 0.92 | inactive |
| Alg8 | 1 | no change with or without drug | 0 | -0.17 | 0.22 | 0.94 | inactive |
| Psmb8 | 1 | no change with or without drug | 1.12 | 1.69 | 0.11 | 1.04 | inactive |
| Sox2ot | 1 | no change with or without drug | -0.34 | 0.17 | -0.34 | 0.91 | inactive |
| Gbp2 | 1 | no change with or without drug | 0 | -1.85 | 1.57 | 0.94 | inactive |
| Gla | 1 | no change with or without drug | 1.69 | -0.17 | 2.02 | 1.09 | inactive |
| Zmat1 | 1 | no change with or without drug | 0.45 | 0.34 | 0.34 | 0.98 | inactive |
| Rybp | 1 | no change with or without drug | -0.9 | 0.51 | -1.12 | 0.86 | inactive |
| Arsg | 1 | no change with or without drug | -1.12 | 0.67 | -1.46 | 0.84 | inactive |
| Ppp1r1c | 1 | no change with or without drug | 0.67 | -1.69 | 2.25 | 1 | inactive |
| Kcnk18 | 1 | no change with or without drug | -0.56 | -1.52 | 0.56 | 0.89 | inactive |
| Eda2r | 1 | no change with or without drug | -0.67 | 0.51 | -0.9 | 0.88 | inactive |
| Knstrn | 1 | no change with or without drug | -0.67 | 0.67 | -1.01 | 0.88 | inactive |

Entries above whose target name starts with S or s (10):
| Target gene | reagent no. | combined z-score class | viability z-score with doxorubicin | viability z-score without drug | z-score of drug to no-drug ratio | doxorubicin viability vs non-targeting | call |
| --- | --- | --- | --- | --- | --- | --- | --- |
| S100a7a | 1 | no change with or without drug | -0.45 | 0.17 | -0.45 | 0.9 | inactive |
| Slurp1 | 1 | no change with or without drug | -1.69 | 0.84 | -2.14 | 0.79 | inactive |
| Slc17a9 | 1 | no change with or without drug | 1.12 | -0.17 | 1.46 | 1.04 | inactive |
| Scube1 | 1 | no change with or without drug | 1.12 | 0.51 | 0.9 | 1.04 | inactive |
| Srsf6 | 1 | no change with or without drug | -0.56 | -0.51 | -0.11 | 0.89 | inactive |
| Scgb2b26 | 1 | no change with or without drug | 0.56 | 0.84 | 0.11 | 0.99 | inactive |
| Scgb2b26 | 2 | no change with or without drug | 0 | 0.17 | 0 | 0.94 | inactive |
| Sult5a1 | 1 | no change with or without drug | -0.67 | 0.17 | -0.67 | 0.88 | inactive |
| Slc35a4 | 1 | no change with or without drug | -0.22 | 0.34 | -0.34 | 0.92 | inactive |
| Sox2ot | 1 | no change with or without drug | -0.34 | 0.17 | -0.34 | 0.91 | inactive |
